PMC6572760
Results are given in words; binding and its absence hold for the method and conditions named. Binding seen in cells or lysates may run through a third protein. Here binding means that the protein was enriched with, or labelled near, the bait; the list need not be complete. Tags and fused reporters may be left off the sequences shown.

The chains behind the UniProt entries cited, without tags or fusion partners.
UniProt P10961: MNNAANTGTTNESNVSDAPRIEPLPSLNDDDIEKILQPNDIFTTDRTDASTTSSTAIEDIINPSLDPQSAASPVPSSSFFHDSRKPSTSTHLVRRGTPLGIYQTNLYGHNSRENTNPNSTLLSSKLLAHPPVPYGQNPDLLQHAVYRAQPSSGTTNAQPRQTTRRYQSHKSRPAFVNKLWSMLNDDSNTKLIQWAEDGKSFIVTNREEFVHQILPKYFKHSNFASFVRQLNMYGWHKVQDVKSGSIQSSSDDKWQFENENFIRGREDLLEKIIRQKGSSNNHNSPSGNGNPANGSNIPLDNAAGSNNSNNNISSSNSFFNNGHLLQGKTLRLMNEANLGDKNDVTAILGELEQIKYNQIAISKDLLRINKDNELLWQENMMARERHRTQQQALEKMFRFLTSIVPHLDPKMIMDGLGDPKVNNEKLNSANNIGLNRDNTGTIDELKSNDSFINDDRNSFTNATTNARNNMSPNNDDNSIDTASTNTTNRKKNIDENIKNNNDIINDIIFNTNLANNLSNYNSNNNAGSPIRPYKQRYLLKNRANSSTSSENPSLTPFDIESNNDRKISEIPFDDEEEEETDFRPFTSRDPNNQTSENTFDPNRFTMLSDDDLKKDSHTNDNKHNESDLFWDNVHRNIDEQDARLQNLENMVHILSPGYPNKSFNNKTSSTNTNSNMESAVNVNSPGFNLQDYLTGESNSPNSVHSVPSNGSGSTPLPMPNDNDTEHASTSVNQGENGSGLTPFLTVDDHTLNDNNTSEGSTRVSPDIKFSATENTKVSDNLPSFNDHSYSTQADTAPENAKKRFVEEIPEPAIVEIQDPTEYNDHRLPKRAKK
UniProt Q06681: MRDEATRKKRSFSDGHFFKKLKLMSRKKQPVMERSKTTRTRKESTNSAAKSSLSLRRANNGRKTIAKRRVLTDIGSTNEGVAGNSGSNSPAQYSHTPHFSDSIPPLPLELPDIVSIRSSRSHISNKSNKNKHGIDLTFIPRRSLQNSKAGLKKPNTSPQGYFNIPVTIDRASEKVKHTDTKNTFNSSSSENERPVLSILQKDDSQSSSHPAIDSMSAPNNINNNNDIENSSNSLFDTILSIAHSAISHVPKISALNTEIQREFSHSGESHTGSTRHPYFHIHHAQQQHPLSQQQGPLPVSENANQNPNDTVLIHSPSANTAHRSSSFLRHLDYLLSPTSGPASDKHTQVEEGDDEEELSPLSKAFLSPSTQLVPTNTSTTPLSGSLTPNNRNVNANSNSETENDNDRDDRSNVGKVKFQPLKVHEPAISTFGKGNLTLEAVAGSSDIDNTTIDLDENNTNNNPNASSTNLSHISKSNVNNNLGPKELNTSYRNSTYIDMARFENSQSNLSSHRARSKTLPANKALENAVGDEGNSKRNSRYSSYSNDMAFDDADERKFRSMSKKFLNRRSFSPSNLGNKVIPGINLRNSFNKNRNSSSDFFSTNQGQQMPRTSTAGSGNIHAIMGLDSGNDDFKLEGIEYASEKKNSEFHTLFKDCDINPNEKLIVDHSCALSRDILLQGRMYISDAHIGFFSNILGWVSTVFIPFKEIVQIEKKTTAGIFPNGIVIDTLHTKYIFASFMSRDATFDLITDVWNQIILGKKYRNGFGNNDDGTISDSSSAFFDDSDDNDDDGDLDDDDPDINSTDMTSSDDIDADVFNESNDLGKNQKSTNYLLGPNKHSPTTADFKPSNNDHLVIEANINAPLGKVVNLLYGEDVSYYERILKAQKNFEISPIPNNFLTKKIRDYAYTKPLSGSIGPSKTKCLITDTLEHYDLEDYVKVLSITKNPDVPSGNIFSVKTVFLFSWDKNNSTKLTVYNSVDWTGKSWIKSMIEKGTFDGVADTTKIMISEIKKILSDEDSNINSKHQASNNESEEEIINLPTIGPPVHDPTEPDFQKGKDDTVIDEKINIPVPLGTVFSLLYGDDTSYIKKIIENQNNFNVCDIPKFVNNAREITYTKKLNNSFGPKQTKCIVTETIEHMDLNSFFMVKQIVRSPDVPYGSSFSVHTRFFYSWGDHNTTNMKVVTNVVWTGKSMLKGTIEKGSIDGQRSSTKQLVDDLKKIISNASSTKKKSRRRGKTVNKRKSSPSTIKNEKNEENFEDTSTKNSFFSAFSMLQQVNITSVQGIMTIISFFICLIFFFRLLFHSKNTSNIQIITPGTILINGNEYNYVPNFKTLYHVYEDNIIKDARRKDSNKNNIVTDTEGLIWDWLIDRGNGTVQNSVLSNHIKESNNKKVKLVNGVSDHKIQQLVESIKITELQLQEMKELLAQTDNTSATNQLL
UniProt P32499: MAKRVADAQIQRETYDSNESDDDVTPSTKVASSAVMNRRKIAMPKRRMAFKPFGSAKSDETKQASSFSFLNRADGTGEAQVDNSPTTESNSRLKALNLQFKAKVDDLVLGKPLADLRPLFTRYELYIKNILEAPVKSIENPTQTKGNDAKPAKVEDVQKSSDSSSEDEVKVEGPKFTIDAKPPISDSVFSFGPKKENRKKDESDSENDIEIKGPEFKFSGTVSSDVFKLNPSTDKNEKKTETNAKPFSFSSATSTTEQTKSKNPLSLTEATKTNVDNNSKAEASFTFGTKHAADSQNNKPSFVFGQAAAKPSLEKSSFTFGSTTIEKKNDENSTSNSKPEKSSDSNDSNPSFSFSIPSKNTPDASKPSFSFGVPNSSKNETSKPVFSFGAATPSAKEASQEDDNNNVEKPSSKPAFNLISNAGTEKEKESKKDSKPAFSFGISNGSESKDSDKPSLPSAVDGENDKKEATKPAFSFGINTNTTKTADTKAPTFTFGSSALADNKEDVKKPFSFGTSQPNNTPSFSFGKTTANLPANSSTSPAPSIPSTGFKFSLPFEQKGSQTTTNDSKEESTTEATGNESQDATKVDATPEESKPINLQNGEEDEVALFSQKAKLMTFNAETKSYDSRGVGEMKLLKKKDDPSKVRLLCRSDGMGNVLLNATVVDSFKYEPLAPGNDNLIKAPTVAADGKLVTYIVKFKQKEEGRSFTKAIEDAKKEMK

Columns and labels:
Assay in all cases: proximity labelling; M-track protein-protein proximity assay in living yeast: bait fused to HKMTmyc tri-methylates the H3 moiety of Hog1-protA-H3 on close proximity; cells treated with 1 M sorbitol for 40 min (unstressed cells also tested); me3K9H3 over HA signal by Western blot of urea extracts, compared with a strain expressing only Hog1-protA-H3
[1] = biological target: Hsf1-HKMTmyc (S. cerevisiae) (UniProt P10961)
[2] = biological target: T1, Orm2-HKMTmyc (S. cerevisiae) (UniProt Q06144)
T1 sequence: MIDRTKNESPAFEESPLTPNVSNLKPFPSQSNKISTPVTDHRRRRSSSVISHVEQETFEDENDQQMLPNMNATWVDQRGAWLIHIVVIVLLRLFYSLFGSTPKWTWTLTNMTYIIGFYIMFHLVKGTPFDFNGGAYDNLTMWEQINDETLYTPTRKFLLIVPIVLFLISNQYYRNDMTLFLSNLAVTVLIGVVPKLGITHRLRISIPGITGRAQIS

[3] = biological target: MYC-HKMT-GL-Ysp2 (N-terminal fusion) (S. cerevisiae) (UniProt Q06681)
[4] = biological target: T2, Pan1-HKMTmyc (S. cerevisiae) (UniProt P32521)
T2 sequence: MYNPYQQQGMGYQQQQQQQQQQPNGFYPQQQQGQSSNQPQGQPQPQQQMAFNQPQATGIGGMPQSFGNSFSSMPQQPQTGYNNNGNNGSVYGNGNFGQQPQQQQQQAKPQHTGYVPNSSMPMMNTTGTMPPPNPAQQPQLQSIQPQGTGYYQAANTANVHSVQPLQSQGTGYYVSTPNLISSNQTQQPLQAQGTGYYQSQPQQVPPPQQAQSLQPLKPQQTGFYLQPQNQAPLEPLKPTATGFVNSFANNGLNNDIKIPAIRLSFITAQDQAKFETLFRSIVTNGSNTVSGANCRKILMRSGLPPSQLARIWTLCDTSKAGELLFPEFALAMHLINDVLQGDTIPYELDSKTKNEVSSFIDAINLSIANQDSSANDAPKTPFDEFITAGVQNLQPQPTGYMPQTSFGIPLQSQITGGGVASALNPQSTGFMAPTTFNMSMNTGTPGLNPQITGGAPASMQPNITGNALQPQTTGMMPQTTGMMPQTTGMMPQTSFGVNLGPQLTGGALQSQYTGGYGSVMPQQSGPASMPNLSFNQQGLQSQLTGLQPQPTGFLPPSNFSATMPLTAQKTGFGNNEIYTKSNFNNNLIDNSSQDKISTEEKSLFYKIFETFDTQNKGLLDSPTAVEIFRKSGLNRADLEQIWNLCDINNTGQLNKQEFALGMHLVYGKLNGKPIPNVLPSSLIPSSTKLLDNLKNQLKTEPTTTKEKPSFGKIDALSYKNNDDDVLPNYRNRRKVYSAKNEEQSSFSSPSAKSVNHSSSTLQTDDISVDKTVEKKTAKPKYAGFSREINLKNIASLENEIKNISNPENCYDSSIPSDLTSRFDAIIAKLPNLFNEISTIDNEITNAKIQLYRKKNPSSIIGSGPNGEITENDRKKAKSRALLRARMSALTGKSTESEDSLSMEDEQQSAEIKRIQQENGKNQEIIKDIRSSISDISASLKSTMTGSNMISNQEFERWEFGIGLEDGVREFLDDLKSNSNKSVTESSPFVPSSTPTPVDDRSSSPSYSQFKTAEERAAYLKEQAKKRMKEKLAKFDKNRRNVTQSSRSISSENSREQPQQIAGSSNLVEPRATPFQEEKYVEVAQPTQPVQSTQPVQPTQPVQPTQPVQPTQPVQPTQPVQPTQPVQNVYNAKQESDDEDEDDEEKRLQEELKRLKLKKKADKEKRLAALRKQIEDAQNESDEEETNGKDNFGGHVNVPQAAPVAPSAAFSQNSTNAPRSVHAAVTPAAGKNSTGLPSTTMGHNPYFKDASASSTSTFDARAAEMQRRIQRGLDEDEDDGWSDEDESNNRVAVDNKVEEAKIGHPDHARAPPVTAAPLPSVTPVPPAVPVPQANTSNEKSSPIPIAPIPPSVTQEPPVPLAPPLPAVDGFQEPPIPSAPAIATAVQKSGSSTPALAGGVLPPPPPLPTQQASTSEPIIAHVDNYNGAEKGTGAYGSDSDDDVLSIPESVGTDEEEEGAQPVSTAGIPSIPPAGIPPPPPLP

[5] = biological target: Nup2-HKMT (S. cerevisiae) (UniProt P32499)

Measured: binding

B1: Hog1-TEV-ProteinA-Histone3-HA (enzyme, UniProt P32485 1-435)
chain: MTTNEEFIRTQIFGTVFEITNRYNDLNPVGMGAFGLVCSATDTLTSQPVAIKKIMKPFSTAVLAKRTYRELKLLKHLRHENLICLQDIFLSPLEDIYFVTELQGTDLHRLLQTRPLEKQFVQYFLYQILRGLKYVHSAGVIHRDLKPSNILINENCDLKICDFGLARIQDPQMTGYVSTRYYRAPEIMLTWQKYDVEVDIWSAGCIFAEMIEGKPLFPGKDHVHQFSIITDLLGSPPKDVINTICSENTLKFVTSLPHRDPIPFSERFKTVEPDAVDLLEKMLVFDPKKRITAADALAHPYSAPYHDPTDEPVADAKFDWHFNDADLPVDTWRVMMYSEILDFHKIGGSDGQIDISATFDDQVAAATAAAAQAQAQAQAQVQLNMAAHSHNGAGTTGNDHSDIAGGNKVSDHVAANDTITDYGNQAIQYANEFQQ
binds: all assays above
